{
  "source": "paper PMC11123929",
  "about": "“A Comparative Study and Prediction of the Ex Vivo Permeation of Six Vaginally Administered Drugs across Five Artificial Membranes and Vaginal Tissue” (Molecules, 2024)",
  "key": {"[1]": {"experiment": "Retention on reversed-phase C4 HPLC column as indication of tissue penetration", "format": "physicochemical", "details": "ACE C4 150 × 4.6 mm, MeOH-H2O 10:90, 0.5 mL/min, 40 °C", "method": "Under the given conditions, it was assumed that the stationary phase simulates the tissue while the aqueous mobile phase represents the surrounding space. […] However, it should be clarified that under the present conditions, it was not possible to conduct a global assessment of the phenomenon because not all of the studied substances penetrated the tissue. However, this procedure could be used as an initial indication for the behaviors of potential drug candidates. […] The analysis was carried out under isocratic conditions with a flow rate of 0.5 mL/min and a mobile phase consisting of MeOH-H2O at 10:90 (v/v)."}, "in vitro [2]": {"experiment": "in vitro", "details": "pH 7.4", "description": "(§1) There are many membranes available on the market that are grouped as cellulosic and polymeric. Taking into account those that are more convenient and economical, two synthetic membranes and their combinations were used. Synthetic PVDF (polyvinylidene difluoride) and cellulose acetate (Table S2) membranes were pre-treated according to the supplier’s instructions. Cellulose membranes were further treated to acquire their lipophilic properties. Thus, they were placed on a flat glass surface and completely coated with IPM (isopropyl myristate) solution. The cellulose membrane was allowed to incubate in the IPM solution for 30 min. After impregnation, the excess IPM solution was drained off, and the membrane was used for the in vitro experiments. To ensure that the procedure was carried out successfully, the cellulose membrane was weighed before and after pretreatment.\n(§2) The in vitro permeability profile of each compound was evaluated using the Franz diffusion cell setup (PermeGear, Hellertown, PA, USA). Five distinct artificial membranes were placed between the donor (upper) and receiver (lower) chambers of cells, with an effective diffusion area of 4.9 cm^2 and a receptor volume of 20 mL; 1 mL of APIs solutions were placed in the donor compartment, which was sealed with Parafilm® to prevent any loss of moisture. The acceptor contained degassed PBS at pH 7.4. The procedure was performed under agitation at 90 rpm and at a temperature of 37 °C ± 0.2 °C.\n(§3) At specified intervals (t = 2, 3, 4, 6, and 8 h), 0.5 mL of the samples was taken from the receptor compartment and replaced with an equal volume of freshly prewarmed receptor medium. The concentration of each API was quantified using the appropriate HPLC method (Section 4.1) without sample pretreatment. […] Each sample was analyzed in triplicate, and its cumulative release over time was plotted (Figure 2). The steady-state flux (Jss) was determined by plotting the permeation of the API per unit area (μg/cm^2) against time (h) and calculating the slope of the linear portion of the resulting line. […]"}, "in vitro [3]": {"experiment": "in vitro", "details": "cow", "method": "Ex vivo experiments were conducted on cow vaginal mucosa sourced from a local slaughterhouse. Tissues with an exposure area of 0.19 cm^2 were placed in a Franz diffusion cell with the epithelial mucosa side facing the donor compartment. In the donor compartment, 200 μL of API’s solution in VFS (pH 4.5) was added (37 °C ± 0.2 °C), while the acceptor was filled with 5 mL of PBS at pH 7.4 (constant stirring at 100 rpm).\nSamples were centrifuged at 2000× g for 10 min, and supernatants were analyzed using HPLC as described in Section 4.1.\nThe procedure for extracting the drug from the tissue was as follows: after the experiment was completed, each tissue was carefully removed from the Franz cell and immersed in 5 mL of methanol. It was then sonicated for 30 min, followed by 10 min of vertexing, another 30 min in the sonicator, and 10 min of vertexing. Finally, the samples were centrifuged for 20 min at 5000× g, and the supernatant was collected for analysis."}, "in vitro [4]": {"experiment": "in vitro", "details": "pH 7.4", "description": "as §1, §2, §3", "remark": "listed apart in the source"}, "in vitro [5]": {"experiment": "in vitro", "details": "pH 7.4", "description": "as §1, §2, §3", "remark": "listed apart in the source"}, "in vitro [6]": {"experiment": "in vitro", "details": "pH 7.4", "description": "as §1, §2, §3", "remark": "listed apart in the source"}, "in vitro [7]": {"experiment": "in vitro", "details": "pH 7.4", "description": "as §1, §2, §3", "remark": "listed apart in the source"}},
  "data": [
    {"smiles": "CCC[C@@H]1C[C@@H](C(=O)N[C@@H]([C@H]2O[C@H](SC)[C@H](O)[C@@H](O)[C@H]2O)[C@H](C)Cl)N(C)C1", "note": "[CLIND, clindamycin]", "values": [
      {"measurement": "Retention time (tr) in column C4", "setting": "[1]", "result": 6.10, "unit": "min"},
      {"measurement": "Cumulative Amount Permeated, PVDF (Hydrophobic)", "setting": "in vitro [2]", "result": "1510.1 4th (±188.6) μg/cm^2"},
      {"measurement": "Papp", "setting": "in vitro [2]", "result": 1.39, "unit": "×10⁻⁶ cm/s"},
      {"measurement": "permeation order of the substance, PVDF (Hydrophobic)", "setting": "in vitro [2]", "result": "1510.1 4th (±188.6)"},
      {"measurement": "Cumulative Amount Permeated, Tissue", "setting": "in vitro [3]", "result": "1197.5 3rd (±159.5) μg/cm^2"},
      {"measurement": "Papp", "setting": "in vitro [3]", "result": 5.56, "unit": "×10⁻⁶ cm/s"},
      {"measurement": "Tissue Extraction", "setting": "in vitro [3]", "result": "0.3 (±0.01) mg"},
      {"measurement": "permeation order of the substance, Tissue", "setting": "in vitro [3]", "result": "1197.5 3rd (±159.5)"},
      {"measurement": "Cumulative Amount Permeated, Impregnated IPM", "setting": "in vitro [4]", "result": "285.0 3rd (±48) μg/cm^2"},
      {"measurement": "Papp", "setting": "in vitro [4]", "result": 0.0833, "unit": "×10⁻⁶ cm/s"},
      {"measurement": "permeation order of the substance, Impregnated IPM", "setting": "in vitro [4]", "result": "285.0 3rd (±48)"},
      {"measurement": "Cumulative Amount Permeated, PVDF-Cellulose", "setting": "in vitro [5]", "result": "1047.1 1st (±22) μg/cm^2"},
      {"measurement": "Papp", "setting": "in vitro [5]", "result": 4.17, "unit": "×10⁻⁶ cm/s"},
      {"measurement": "permeation order of the substance, PVDF-Cellulose", "setting": "in vitro [5]", "result": "1047.1 1st (±22)"},
      {"measurement": "Cumulative Amount Permeated, Cellulose (Hydrophilic)", "setting": "in vitro [6]", "result": "905.9 3rd (±38.8) μg/cm^2"},
      {"measurement": "Papp", "setting": "in vitro [6]", "result": 2.5, "unit": "×10⁻⁶ cm/s"},
      {"measurement": "permeation order of the substance, Cellulose (Hydrophilic)", "setting": "in vitro [6]", "result": "905.9 3rd (±38.8)"},
      {"measurement": "Cumulative Amount Permeated, IPM-Cellulose", "setting": "in vitro [7]", "result": "815.5 2nd (±85.2) μg/cm^2"},
      {"measurement": "Papp", "setting": "in vitro [7]", "result": 3.33, "unit": "×10⁻⁶ cm/s"},
      {"measurement": "permeation order of the substance, IPM-Cellulose", "setting": "in vitro [7]", "result": "815.5 2nd (±85.2)"}
    ]}
  ]
}
